No constants are given. Whether binding was seen depends on the method and setting. Binding seen in cells or lysates may run through a third protein. Some binding calls cover weakened binding; strength is not graded here.
molecular target: FLAG-tagged eIF3d (wild-type eIF3D-FLAG) (UniProt O15371); experiment: co-IP; HeLa lysate (50 mM Tris pH7.5, 150 mM NaCl, 1% Triton-X, Benzonase) on anti-flag-beads for 2 h at 4 °C, three washes, western blot; cells treated for 2 h with DMSO or with 3 µM of the CK2 inhibitor CX-5011 before lysis

The chains behind the UniProt entries cited, without tags or fusion partners.
UniProt O15371: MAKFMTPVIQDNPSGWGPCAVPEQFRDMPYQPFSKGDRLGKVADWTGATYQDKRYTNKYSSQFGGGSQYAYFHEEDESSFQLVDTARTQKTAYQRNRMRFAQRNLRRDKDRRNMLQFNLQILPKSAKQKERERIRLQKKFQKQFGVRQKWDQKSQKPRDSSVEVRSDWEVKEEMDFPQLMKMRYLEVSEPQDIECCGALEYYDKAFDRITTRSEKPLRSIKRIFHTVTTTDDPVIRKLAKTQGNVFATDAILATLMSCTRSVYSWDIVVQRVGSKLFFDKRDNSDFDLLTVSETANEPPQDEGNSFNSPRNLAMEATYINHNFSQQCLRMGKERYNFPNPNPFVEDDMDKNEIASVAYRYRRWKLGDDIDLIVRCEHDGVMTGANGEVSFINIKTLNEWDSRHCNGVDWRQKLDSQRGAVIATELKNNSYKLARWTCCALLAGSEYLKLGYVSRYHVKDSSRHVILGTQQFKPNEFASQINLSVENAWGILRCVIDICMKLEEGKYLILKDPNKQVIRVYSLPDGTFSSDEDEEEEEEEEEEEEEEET
UniProt Q9Y262: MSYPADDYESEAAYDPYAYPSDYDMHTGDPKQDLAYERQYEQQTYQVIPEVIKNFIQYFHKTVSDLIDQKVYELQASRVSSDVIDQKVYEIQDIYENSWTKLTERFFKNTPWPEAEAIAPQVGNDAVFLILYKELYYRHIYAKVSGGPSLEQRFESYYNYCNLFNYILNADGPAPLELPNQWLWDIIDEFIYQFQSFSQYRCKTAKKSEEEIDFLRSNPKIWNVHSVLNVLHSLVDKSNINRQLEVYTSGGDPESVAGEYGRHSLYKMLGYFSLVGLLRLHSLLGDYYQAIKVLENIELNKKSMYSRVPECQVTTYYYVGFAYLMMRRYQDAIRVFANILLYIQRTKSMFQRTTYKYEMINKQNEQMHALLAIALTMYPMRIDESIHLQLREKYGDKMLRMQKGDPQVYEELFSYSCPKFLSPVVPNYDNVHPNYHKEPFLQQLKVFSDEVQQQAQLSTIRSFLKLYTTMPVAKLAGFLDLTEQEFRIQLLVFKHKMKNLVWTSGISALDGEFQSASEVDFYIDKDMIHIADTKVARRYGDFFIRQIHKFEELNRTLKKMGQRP
UniProt P55884: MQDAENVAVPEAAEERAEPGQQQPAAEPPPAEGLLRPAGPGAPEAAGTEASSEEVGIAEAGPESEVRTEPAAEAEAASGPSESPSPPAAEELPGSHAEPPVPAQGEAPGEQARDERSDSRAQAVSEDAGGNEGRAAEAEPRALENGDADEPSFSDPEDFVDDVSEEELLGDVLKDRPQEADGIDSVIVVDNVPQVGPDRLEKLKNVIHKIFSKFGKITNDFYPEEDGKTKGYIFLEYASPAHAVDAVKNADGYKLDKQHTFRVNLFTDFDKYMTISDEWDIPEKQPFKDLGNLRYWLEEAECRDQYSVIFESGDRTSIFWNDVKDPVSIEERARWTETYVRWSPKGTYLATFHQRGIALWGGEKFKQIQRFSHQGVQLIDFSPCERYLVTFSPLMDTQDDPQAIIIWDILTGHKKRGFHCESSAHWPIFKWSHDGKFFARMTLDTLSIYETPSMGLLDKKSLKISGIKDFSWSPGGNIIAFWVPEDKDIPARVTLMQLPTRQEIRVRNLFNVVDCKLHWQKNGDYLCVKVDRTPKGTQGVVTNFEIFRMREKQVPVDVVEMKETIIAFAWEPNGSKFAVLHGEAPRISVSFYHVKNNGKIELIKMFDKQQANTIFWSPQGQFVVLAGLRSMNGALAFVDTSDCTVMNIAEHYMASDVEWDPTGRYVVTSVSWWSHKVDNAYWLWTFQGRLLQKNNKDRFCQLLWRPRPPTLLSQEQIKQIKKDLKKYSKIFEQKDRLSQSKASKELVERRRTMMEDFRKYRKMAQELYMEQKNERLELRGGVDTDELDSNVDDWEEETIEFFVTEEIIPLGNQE
UniProt Q04637: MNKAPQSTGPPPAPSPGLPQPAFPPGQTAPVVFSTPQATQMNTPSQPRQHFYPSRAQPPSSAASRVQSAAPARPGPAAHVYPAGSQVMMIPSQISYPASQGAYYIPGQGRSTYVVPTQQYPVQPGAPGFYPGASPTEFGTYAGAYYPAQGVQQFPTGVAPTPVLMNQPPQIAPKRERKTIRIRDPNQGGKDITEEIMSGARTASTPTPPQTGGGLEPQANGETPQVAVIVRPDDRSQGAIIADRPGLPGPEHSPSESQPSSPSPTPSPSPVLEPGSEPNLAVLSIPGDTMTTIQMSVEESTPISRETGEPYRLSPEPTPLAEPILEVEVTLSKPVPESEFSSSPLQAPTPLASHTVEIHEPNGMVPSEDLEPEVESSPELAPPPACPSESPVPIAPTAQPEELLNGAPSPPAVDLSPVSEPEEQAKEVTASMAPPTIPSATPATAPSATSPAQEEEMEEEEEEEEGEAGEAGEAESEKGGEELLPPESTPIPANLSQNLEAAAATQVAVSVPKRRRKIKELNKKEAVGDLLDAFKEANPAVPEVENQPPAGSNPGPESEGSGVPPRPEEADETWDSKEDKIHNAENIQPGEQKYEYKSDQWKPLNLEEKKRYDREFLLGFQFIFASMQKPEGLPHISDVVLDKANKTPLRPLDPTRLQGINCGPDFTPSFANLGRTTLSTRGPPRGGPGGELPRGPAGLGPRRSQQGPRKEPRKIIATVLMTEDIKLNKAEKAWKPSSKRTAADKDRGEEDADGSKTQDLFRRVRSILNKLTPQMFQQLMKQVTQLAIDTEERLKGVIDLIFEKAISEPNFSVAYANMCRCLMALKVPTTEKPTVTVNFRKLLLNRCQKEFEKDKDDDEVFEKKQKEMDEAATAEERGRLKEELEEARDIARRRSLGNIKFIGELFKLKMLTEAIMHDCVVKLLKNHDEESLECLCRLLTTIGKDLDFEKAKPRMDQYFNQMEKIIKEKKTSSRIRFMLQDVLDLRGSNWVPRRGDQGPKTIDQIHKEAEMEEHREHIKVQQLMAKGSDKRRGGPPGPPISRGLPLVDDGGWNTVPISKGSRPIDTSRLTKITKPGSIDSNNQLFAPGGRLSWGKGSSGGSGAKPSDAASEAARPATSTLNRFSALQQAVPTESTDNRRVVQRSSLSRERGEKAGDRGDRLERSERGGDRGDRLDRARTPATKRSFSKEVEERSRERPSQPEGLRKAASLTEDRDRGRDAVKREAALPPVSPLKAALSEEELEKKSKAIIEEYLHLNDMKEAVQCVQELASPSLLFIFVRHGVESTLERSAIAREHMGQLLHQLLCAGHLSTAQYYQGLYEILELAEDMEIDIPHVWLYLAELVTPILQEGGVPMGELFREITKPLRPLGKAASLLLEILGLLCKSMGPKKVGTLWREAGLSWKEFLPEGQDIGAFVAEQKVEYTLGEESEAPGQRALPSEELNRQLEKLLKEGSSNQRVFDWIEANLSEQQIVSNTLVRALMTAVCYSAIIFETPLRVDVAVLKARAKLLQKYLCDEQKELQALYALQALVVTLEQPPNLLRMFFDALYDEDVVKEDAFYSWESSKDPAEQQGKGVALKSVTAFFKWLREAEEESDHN

Row | binding | Substance
1 | binds | eIF3l (from UniProt Q9Y262 1-564)
2 | binds | eIF3b (from UniProt P55884 1-814)
3 | binds | eIF4G1 (from UniProt Q04637 1-1599)
